From PubChem BioAssay AID504834 (National Center for Advancing Translational Sciences (NCATS), 2011)
About 22,000 (6.9%) of roughly 320,000 compounds were called active. Inconclusive means that the source gave no clear call. Such entries were picked first, then a sample of the others. Calls come from the whole dose curve; as a rule, active = well fitted inhibition curve with a large enough effect; inconclusive = small, poorly fitted or top-dose-only effect, or another doubt; inactive = no such curve, though single readings can be large or run the other way. Potencies beside an inconclusive call are fits to weak or partial responses and may not hold up.

Assay: Primary qHTS for delayed death inhibitors of the malarial parasite plastid, 96 hour incubation
Conditions: P. falciparum luciferase reporter growth; series mostly up to 28.7 µM
Procedure, shortened: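 Luminescence readout: decreased luciferase signal marks inhibited growth of reporter-expressing P. falciparum in infected red cells (2% hematocrit, 0.05% parasitemia final), exposed to compound two generations (96 h, 37 C, 5% CO2).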
Potency is the fitted concentration of half-maximal effect.

SMILES | Potency
CCN1CCN(C(=O)CN(CC)S(=O)(=O)c2ccc(Cl)cc2)CC1 | inactive
Cc1ccc(NS(=O)(=O)c2cc([N+](=O)[O-])ccc2N/N=C/c2sc(N3CCOCC3)nc2-c2ccccc2)c(C)c1 | inconclusive: 1.17 µM [inhibitor, full curve, poor fit]
COc1cccc(NC(=O)c2ccc(-n3cccn3)nc2)c1 | inconclusive: 14.7 µM [inhibitor, partial curve, poor fit]
CN(C)c1oc(/C=C/c2cccs2)nc1S(=O)(=O)c1ccccc1 | inconclusive: 11.7 µM [inhibitor, single point]
COc1ccc(CCNc2ccc(C(CC(N)=O)NC(=O)Cc3ccc(Br)cc3)cc2[N+](=O)[O-])cc1 (centres undefined) | inconclusive: 14.7 µM [inhibitor, partial curve, poor fit]
Cc1cccc(NC(=O)CCNS(=O)(=O)c2ccc3[nH]c(=O)oc3c2)c1 | inconclusive: 3.29 µM [inhibitor, full curve, poor fit]
COc1ccc(S(=O)(=O)N(CC(N)=O)C2CCCCC2)cc1Cl | inconclusive: 2.94 µM [inhibitor, partial curve, poor fit]
CCOC(=O)CC(NC(=O)Cn1nnc(-c2ccccc2F)n1)c1ccccc1Cl (centres undefined) | inconclusive: 1.47 µM [inhibitor, full curve]
COc1ccccc1CNC(=O)C1CC2Cn3c(nc4cc5ccccc5cc43)C2N1C (centres undefined) | inconclusive: 18.5 µM [inhibitor, single point]
COc1ccc(NC(=O)c2ccc(NC(=O)c3nc4nc(C)cc(C)n4n3)cc2)cc1 | inconclusive: 3.29 µM [inhibitor, single point]
OC1(c2cccs2)CN(c2ccccc2)C2=[N+]1CCCC2 (centres undefined) | inconclusive: 13.1 µM [inhibitor, single point]
COc1cccc(NC(=O)CN(C)CC(=O)Nc2ccc(C)c([N+](=O)[O-])c2)c1 | inactive
COCCN(Cc1cc2cc(C)ccc2n2nnnc12)C(=S)Nc1ccc(C)cc1 | inconclusive: 4.15 µM [inhibitor, partial curve, poor fit]
CCn1ccnc1CN(C)C(=O)c1ccc(OC2CCN(CCc3ccccc3)CC2)cc1 | inconclusive: 18.5 µM [inhibitor, single point]
O=C(NCc1ccccc1)C1CCCN1S(=O)(=O)c1cccc2cccnc12 (centres undefined) | active: 4.65 µM
COC(=O)n1ccc(C(=O)Nc2ccccc2F)n1 | inconclusive: 0.0047 µM [inhibitor, full curve, poor fit]
Cc1ccc(C)c(/C=N/n2cc(-c3ccccc3)[nH]c2=S)c1 | inconclusive: 1.85 µM [inhibitor, partial curve, poor fit]
Cn1c(O)c(N=NC(=O)c2cccc(S(=O)(=O)N3CCCCC3)c2)c2ccccc21 | active: 7.38 µM
O=C(O)CCCCCN1C(=O)C(O)=C(C(=O)/C=C/c2ccccc2)C1c1ccccc1[N+](=O)[O-] (centres undefined) | active: 9.28 µM
Cc1cccc(-n2ncc3c2CCCC3NC(=O)CCCN2CCCCC2=O)c1C (centres undefined) | inconclusive: 13.1 µM [inhibitor, partial curve, poor fit]
Cn1cc(/C=C(\C#N)C(=O)Nc2ccccc2O)c2ccccc21 | inconclusive: 14.7 µM [inhibitor, single point]
CCCCCCC(C)n1cc(C(C)=O)c(=O)n(C)c1=O (centres undefined) | inconclusive: 8.28 µM [inhibitor, single point]
CCc1nnc(NC(=O)c2ccncc2)s1 | inactive

SMILES | Potency
Cc1ccc(CN2CCc3c(OCC(=O)Nc4cccc(C)c4C)cccc3C2=O)cc1 | inconclusive: 1.17 µM [inhibitor, partial curve]
COC(=O)Cn1c(=NC(=O)c2ccc(S(=O)(=O)N3CCOCC3)cc2)sc2cc(S(N)(=O)=O)ccc21 | inconclusive: 20.8 µM [inhibitor, single point]
CNC(=S)NNC(=O)COc1cccc(C)c1C | active: 8.28 µM
Cc1ccc(C(c2nnnn2Cc2ccccc2)N2CCN(Cc3ccccc3)CC2)cc1 (centres undefined) | inactive
O=C(c1ccc(Cl)cc1)N1CCN(C(=O)C2CCCCC2)CC1 | active: 5.86 µM
CN(NC(=O)c1ccc(Cl)cc1)c1cccc(Cl)n1 | inactive
Cc1ccsc1-c1n[nH]c(=S)n1C1CCCCC1 | inactive
COc1ccccc1CNc1ccc2nnc(CCNC(=O)c3ccccc3)n2n1 | inconclusive: 2.33 µM [inhibitor, full curve, poor fit]
COc1ccc(N=N/C(=C\O)C(=O)c2cccs2)cc1 | inactive
COc1cc(C(=O)Nc2nc(-c3ccc(C)cc3)cs2)ccc1OCC(=O)N1CCOCC1 | inconclusive: 10.4 µM [inhibitor, partial curve, poor fit]
CN1CCN(C(=O)c2ccccc2Nc2ccc(SC(F)F)cc2)CC1 | inconclusive: 9.28 µM [inhibitor, partial curve, poor fit]
COc1ccc(NC(=O)CSc2nc3[nH]c(=O)cc(O)c3s2)cc1OC | inconclusive: 14.7 µM [inhibitor, partial curve, poor fit]
N#Cc1nc(COc2ccc(Cl)cc2)oc1NCc1ccc2c(c1)OCO2 | active: 10.4 µM
CCc1cc(-c2[nH]ncc2-c2ccc(OC)cc2)c(O)cc1O | inconclusive: 9.28 µM [inhibitor, partial curve]
COc1ccc(CNc2ccc(Br)cc2)cc1 | inactive
CCOC(=O)C1(CCc2ccccc2)CCN(C(=O)[C@@H]2C[C@@H](C)NC(=S)N2)CC1 | inconclusive: 11.7 µM [inhibitor, single point]
C/C(=N/Nc1nc(-c2ccccc2)cc(-c2ccc(F)cc2)n1)c1cccc(N)c1 | inactive
N#CC1=C(N)NC(SCc2ccc(F)cc2)=C(C#N)C12CCCCC2 | inconclusive: 14.7 µM [inhibitor, single point]
Cc1cccc(Oc2cnn(C(C)(C)C)c(=O)c2Cl)c1 | inconclusive: 11.7 µM [inhibitor, single point]
COC(=O)c1ccn(Cc2ccccc2Cl)n1 | inconclusive: 10.4 µM [inhibitor, partial curve, poor fit]
Cc1c(N=Nc2ccc(O)cc2)c(=O)n(-c2ccccc2)n1C | inconclusive: 5.22 µM [inhibitor, partial curve, poor fit]
CC(C)(O)CCC(C)(C)O | inactive
CCN(CC)C(=O)COc1ccc(/C(C)=N/NC(=O)c2ccccc2O)cc1 | inactive

A second format for 5 compounds above:
SMILES	Potency
O=C(c1ccc(Cl)cc1)N1CCN(C(=O)C2CCCCC2)CC1	active: 5.86 µM
COc1ccccc1CNc1ccc2nnc(CCNC(=O)c3ccccc3)n2n1	inconclusive: 2.33 µM [inhibitor, full curve, poor fit]
COc1cc(C(=O)Nc2nc(-c3ccc(C)cc3)cs2)ccc1OCC(=O)N1CCOCC1	inconclusive: 10.4 µM [inhibitor, partial curve, poor fit]
CN1CCN(C(=O)c2ccccc2Nc2ccc(SC(F)F)cc2)CC1	inconclusive: 9.28 µM [inhibitor, partial curve, poor fit]
COC(=O)c1ccn(Cc2ccccc2Cl)n1	inconclusive: 10.4 µM [inhibitor, partial curve, poor fit]

(cont.)

SMILES | Potency
N=c1c2c(ncn1CCCO)Oc1ccc3ccccc3c1C2c1ccccc1 (centres undefined) | inconclusive: 2.62 µM [inhibitor, full curve, poor fit]
COC(=O)/C=C/S(=O)(=O)c1ccc(NC(C)=O)cc1 | inconclusive: 18.5 µM [inhibitor, single point]
Cc1ccc2occ(C(c3nnnn3C3CCCC3)N3CCN(C(=O)c4ccco4)CC3)c(=O)c2c1 (centres undefined) | inconclusive: 10.4 µM [inhibitor, partial curve]
CCCCc1ccc(S(=O)(=O)Nc2nnc(C)s2)cc1 | inconclusive: 18.5 µM [inhibitor, single point]
C/C(=N\Nc1cc(N2CCOCC2)nc(C)n1)c1cccc([N+](=O)[O-])c1 | inactive
CCCCC(=O)Nc1sc2c(c1C(=O)OCC)CCC(C=O)=C2Cl | inconclusive: 18.5 µM [inhibitor, single point]
COc1cc(OC)c2ccc(=O)oc2c1C(CCN1CCCC(C)C1)c1ccc(N(C)C)cc1 (centres undefined) | inconclusive: 9.28 µM [inhibitor, partial curve]
O=S(=O)(c1cc(-c2nc3ccccc3s2)ccc1Cl)N1CCOCC1 | inactive
COc1ccc(S(=O)(=O)NNC(=O)C2CC(c3cccnc3)=NO2)cc1 (centres undefined) | inactive
CN(C(=S)NC(=O)/C=C/c1ccc(F)cc1)C1CCCCC1 | inconclusive: 11.7 µM [inhibitor, single point]
Cc1ccc(-n2c(SCC(=O)NCc3ccco3)nc3c([nH]c4ccccc43)c2=O)cc1 | inconclusive: 2.94 µM [inhibitor, partial curve, poor fit]
C/C(=N\Nc1ccc(Cl)c(C(=O)O)c1)c1cccs1 | inactive
COc1ccccc1-c1nnc(NC(=O)Cc2ccccc2)o1 | inconclusive: 4.65 µM [inhibitor, partial curve, poor fit]
O=C(NCc1cccnc1)C(=O)Nc1ccc2c(c1)OCO2 | inconclusive: 18.5 µM [inhibitor, single point]
Cc1cc(C)nc(N/N=C/c2ccccc2OCc2ccc([N+](=O)[O-])cc2)n1 | inconclusive: 18.5 µM [inhibitor, single point]
O=C(NCc1ccccc1Cl)c1cccc(OC2CCN(C(=O)C3CC3)CC2)c1 | active: 8.28 µM
O=C1C=C(c2cccc(CO)c2)C[C@@H](c2ccc(Cl)cc2)C1 | active: 0.465 µM
Oc1c(Br)cc(Br)cc1Br | inactive
CCO/C=C1/C(=O)N(c2ccccc2OC)C(=O)c2ccccc21 | inactive
CCN1C(=NCCc2c[nH]c3ccccc23)N[C@@H](c2ccccc2)[C@H](C(=O)OC)[C@H]1C | inactive
Cc1c(Cl)cccc1NC(=O)CSc1nc(=O)n(CCCN2CCOCC2)c2c1CCC2 | inconclusive: 18.5 µM [inhibitor, partial curve, poor fit]
COc1ccc(C2CC(c3ccccc3)=NN2C(=O)c2ccc(Cl)c([N+](=O)[O-])c2)cc1 (centres undefined) | inactive
O=C(CSCc1cccc(Br)c1)NC1CC1 | inactive
